No constants are given. Whether binding was seen depends on the method and setting. In cells and extracts the contact can be indirect. Some entries that bind do so weakly or less than the wild type. Tags and fused reporters may be left off the sequences shown.
Tests used:
Experiment in all cases: pull-down
[1] = target: T1, Trx-His(6)-Δlinker-hSLAP2 (human SLAP2 residues 29-261), from Duet-His-Δlinker-hSLAP2-CBL (261) (human) (UniProt Q9H6Q3)
T1 sequence: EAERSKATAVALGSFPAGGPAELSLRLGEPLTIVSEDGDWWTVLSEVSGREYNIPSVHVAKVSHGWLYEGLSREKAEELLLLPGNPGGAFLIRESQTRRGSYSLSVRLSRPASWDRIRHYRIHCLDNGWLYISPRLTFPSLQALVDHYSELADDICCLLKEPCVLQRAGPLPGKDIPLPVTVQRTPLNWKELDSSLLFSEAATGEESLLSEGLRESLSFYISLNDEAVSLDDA

[2] = target: T2, Trx-His(6)-hSLAP2 (human SLAP2 residues 29-261), from Duet-His-hSLAP2-CBL (human) (UniProt Q9H6Q3)
T2 sequence: T1 sequence

[3] = target: T3, Trx-His(6)-Δlinker-hSLAP2 with residues 255-261 deleted, from Duet-His-Δlinker-hSLAP2-CBL (254) (human) (UniProt Q9H6Q3)
T3 sequence: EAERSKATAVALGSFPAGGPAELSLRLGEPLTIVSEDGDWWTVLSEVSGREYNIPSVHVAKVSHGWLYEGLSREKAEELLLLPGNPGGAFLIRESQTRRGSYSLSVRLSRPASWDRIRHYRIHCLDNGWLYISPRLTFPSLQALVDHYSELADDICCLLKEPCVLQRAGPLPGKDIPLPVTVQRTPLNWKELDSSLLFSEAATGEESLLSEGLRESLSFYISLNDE

Measured: binding

CBL (47-357), co-expressed from MCS2 of pETDuet-1 (from UniProt P22681 47-357) (domain or fragment)
binds: all assays above

— paper doi:10.1101/2020.10.08.331397
